This assay deals with CD40L (UniProt P29965). The assay can be described thus: proximity labelling.

The chains behind the UniProt entries cited, without tags or fusion partners. Residues count along the entry.
UniProt P29965: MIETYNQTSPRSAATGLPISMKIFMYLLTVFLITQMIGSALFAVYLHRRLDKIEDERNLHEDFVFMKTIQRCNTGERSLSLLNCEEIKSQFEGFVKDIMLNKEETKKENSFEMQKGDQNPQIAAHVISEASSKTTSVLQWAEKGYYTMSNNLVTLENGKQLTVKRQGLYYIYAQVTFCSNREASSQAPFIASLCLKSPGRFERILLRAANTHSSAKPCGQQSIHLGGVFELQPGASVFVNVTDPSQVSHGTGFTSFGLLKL
UniProt P08575, residues 26-1306: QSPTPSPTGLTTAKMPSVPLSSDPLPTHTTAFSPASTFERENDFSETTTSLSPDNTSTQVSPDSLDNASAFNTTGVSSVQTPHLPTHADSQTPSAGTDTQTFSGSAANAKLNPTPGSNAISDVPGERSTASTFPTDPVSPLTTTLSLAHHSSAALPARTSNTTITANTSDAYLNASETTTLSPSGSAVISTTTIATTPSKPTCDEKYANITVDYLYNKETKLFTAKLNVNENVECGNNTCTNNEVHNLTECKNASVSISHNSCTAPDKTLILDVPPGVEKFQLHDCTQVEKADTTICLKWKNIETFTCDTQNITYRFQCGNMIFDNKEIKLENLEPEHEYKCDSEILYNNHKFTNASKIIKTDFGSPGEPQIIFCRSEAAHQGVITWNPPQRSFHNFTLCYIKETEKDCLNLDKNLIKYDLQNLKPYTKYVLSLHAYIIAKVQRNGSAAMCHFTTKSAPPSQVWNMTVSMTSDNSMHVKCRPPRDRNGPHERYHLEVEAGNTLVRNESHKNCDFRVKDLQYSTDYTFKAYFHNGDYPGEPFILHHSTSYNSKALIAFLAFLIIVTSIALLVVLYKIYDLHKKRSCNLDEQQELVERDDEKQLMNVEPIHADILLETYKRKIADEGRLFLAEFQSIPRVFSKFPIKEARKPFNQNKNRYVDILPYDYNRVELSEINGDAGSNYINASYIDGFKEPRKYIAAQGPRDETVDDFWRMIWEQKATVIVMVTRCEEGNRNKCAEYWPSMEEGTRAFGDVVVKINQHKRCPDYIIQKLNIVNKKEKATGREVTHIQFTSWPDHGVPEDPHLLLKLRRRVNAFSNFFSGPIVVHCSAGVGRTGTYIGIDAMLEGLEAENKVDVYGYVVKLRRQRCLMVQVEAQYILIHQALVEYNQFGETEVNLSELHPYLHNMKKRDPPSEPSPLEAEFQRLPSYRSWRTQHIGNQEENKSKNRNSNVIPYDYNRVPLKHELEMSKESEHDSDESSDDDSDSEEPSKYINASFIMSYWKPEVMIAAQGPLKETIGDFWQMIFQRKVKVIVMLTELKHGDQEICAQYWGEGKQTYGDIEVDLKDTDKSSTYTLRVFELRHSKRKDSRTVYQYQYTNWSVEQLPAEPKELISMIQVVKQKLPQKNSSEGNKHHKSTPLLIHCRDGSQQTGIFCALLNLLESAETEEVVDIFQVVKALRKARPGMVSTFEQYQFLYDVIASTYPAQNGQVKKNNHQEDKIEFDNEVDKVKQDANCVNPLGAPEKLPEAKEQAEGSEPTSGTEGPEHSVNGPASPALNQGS

This is an account of results in publication doi:10.1101/2023.04.08.536099.

These are yes or no findings as the source states them, for the method shown. Binding seen in cells or lysates may run through a third protein. Here binding means that the protein was enriched with, or labelled near, the bait; the list need not be complete. No binding means not detected with the bait.

For the substance CD45 (from UniProt P08575 26-1306), the binding result is recorded as “no binding”.
